Reference: patent publication US4073890 (dated 1978)
Square brackets hold non-standard residues; d marks the D form. Ends that are not written are not given here. * marks the point of attachment. Arg(NO2) = N=C(NCCC[C@H](N)C(=O)O)N[N+](=O)[O-]; Cbz = O=C(OCc1ccccc1)*; Boc = CC(C)(C)OC(=O)*; OtBu = CC(C)(C)O*; βAla = NCCC(=O)O

test: peptide synthesis; conditions: coupling step, acetate

Row | Substance | step yield [%]
1 | di-Z-Lys-Arg(NO2)-Gly-Phe-Phe-NH2 | 77
2 | di-Z-α, γ-Dab-Arg(NO2)-Gly-Phe-Phe-Tyr-NH2 | 51
3 | Di-Z-α,γ-Dab-Arg(NO2)-Gly-Phe-Phe-NH2 | 78
4 | Cbz-TPK(Boc)A-OtBu | 93
5 | Cbz-[Arg(NO2)]GFFYTPK(Boc)A-OtBu | 88
6 | Cbz-FFYTPK(Boc)A-OtBu | 100
7 | Zε-Acap-Arg-Pro-Phe-Phe-Tyr-NH2 | 79.1
8 | Z-β-Ala-Arg(NO2)-Gly-Phe-Phe-Tyr-Thr-Pro-O^t Bu | 67.4

same assay, conditions: coupling step, p-toluenesulfonate

Row | Substance | step yield [%]
9 | Cbz-GRPFFY-NH2 | 89.5

same assay, conditions: late stage modification step, acetate

Row | Substance | step yield [%]
10 | [βAla]RGFF-NH2 | 66
